In PubChem BioAssay AID504444 (National Center for Advancing Translational Sciences (NCATS), 2011):
About 7,500 (2.1%) of roughly 360,000 compounds were called active. This list was built around the results that the source calls inconclusive (neither active nor inactive); the mix of calls is not that of the screen. Calls follow the shape of the dose curve; as a rule, active = well fitted inhibition curve with a large enough effect; inconclusive = small, poorly fitted or top-dose-only effect, or effect the other way; inactive = flat fitted curve, though single readings scatter. Potencies beside an inconclusive call are fits to weak or partial responses and may not hold up.

Experiment: Nrf2 qHTS screen for inhibitors; also: nearly all actives have a fitted effect of over 60% in size
Conditions: A549 ARE-Fluc reporter, luciferase luminescence, 18-24 h; series mostly up to 46 µM
Summary of the method: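 Concentration-response testing used A549 ARE_Fluc cells at 5000 cells/well. Following an 18-24 h compound incubation, viability was read by fluorescence (Ex 405/Em 525) and luciferase output by luminescence.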
Potency is read from the fitted curve at half-maximal effect.

Row | Compound | Potency
1 | O=C(Nc1ccc(F)cc1)Nc1ccccc1F | inconclusive: 2.06 µM [activator, full curve]
2 | COc1ccc(CNC(=O)c2ccc(-c3nc(CSc4ccccc4)c(C)o3)cc2)c(OC)c1 | inactive
3 | CCCC(=O)NC(c1ccc(Cl)cc1Cl)c1ccc2cccnc2c1O (stereo not given) | active: 23.1 µM
4 | Cc1cnc(C(=O)Nc2cccc3cccnc23)cn1 | inconclusive: 18.4 µM [falling, partial curve, poor fit]
5 | CC(C)(C)c1ccc(OCCSc2nc3ccccc3n2CC(=O)O)cc1 | inconclusive: 16.4 µM [falling, single point]
6 | N#Cc1c[nH]n2c(NC3CCCCC3)c(-c3cccc(Cl)c3)nc12 | inactive
7 | CCOc1ccc2oc(=O)cc(CN3CCN(c4ccccc4)CC3)c2c1 | inconclusive: 16.4 µM [falling, partial curve, poor fit]
8 | CCc1nnc(N/N=C/c2ccc(N3CCC(C)CC3)c([N+](=O)[O-])c2)n1N | inactive
9 | CC1(C)CC(=O)c2c(O)cc(OCC(=O)Nc3ccc(S(N)(=O)=O)cc3)cc2O1 | inconclusive: 32.6 µM [falling, single point]
10 | COc1ccc(C(=O)N/N=C/c2ccc(OC)c(CN3CCN(c4ccc(F)cc4)CC3)c2)cc1 | inactive
11 | CCOC(=O)c1c(S(=O)(=O)Nc2cccc(-c3ccno3)c2)c(C)n(C)c1C | inconclusive: 23.1 µM [falling, single point]
12 | Cc1ccc(-n2nc3c(=O)n(C(C)C(=O)NCc4ccccc4Cl)nc(C)c3c2C)cc1 (stereo not given) | active: 14.6 µM
13 | O=C1c2ccccc2-c2n[nH]c(=O)c3ccc(N4CCCCC4)c1c23 | inconclusive: 32.6 µM [falling, single point]
14 | CCNC(=S)N1CCC(c2nc3ccccc3s2)CC1 | inconclusive: 16.4 µM [falling, partial curve, poor fit]
15 | O=C1Nc2ccccc2C1=Nc1ccc(F)cc1 | inactive
16 | CCCOc1ccc(C2c3c(oc4ccccc4c3=O)C(=O)N2c2nc(C)c(C(=O)OCC)s2)cc1 (stereo not given) | inactive
17 | Cc1cc(C(C#N)c2cccc(Cl)c2)n2ncnc2n1 (stereo not given) | inconclusive: 25.9 µM [falling, single point]
18 | COC(=O)Nc1nnc(-c2ccccc2OC)s1 | inconclusive: 2.59 µM [activator, full curve]
19 | O=Cc1ccc(OCc2ccc3c(c2)OCO3)cc1 | inactive
20 | CCn1c(-c2sc(-c3ccccc3)nc2C)n[nH]c1=S | inconclusive: 2.06 µM [activator, partial curve, poor fit]
21 | O=C(CCCn1c(SCC(=O)c2ccc(Cl)cc2)nc2ccccc2c1=O)NCc1ccco1 | inconclusive: 25.9 µM [falling, single point]
22 | c1ccc(N(c2ccccc2)c2nc(N3CCCC3)nc(-n3ccnc3)n2)cc1 | active: 23.1 µM
23 | CCOC(=O)CSC1=NC(=O)/C(=C\c2ccc(Cl)cc2)S1 | inconclusive: 14.6 µM [activator, partial curve]

Taken from above:
For Potency, `CC1(C)CC(=O)c2c(O)cc(OCC(=O)Nc3ccc(S(N)(=O)=O)cc3)cc2O1` is entered as inconclusive: 32.6 µM [falling, single point]
For Potency, `COc1ccc(CNC(=O)c2ccc(-c3nc(CSc4ccccc4)c(C)o3)cc2)c(OC)c1` is entered as inactive
For Potency, `COc1ccc(C(=O)N/N=C/c2ccc(OC)c(CN3CCN(c4ccc(F)cc4)CC3)c2)cc1` is entered as inactive

Following part:

Row | Compound | Potency
24 | Cc1cc(Cl)ccc1OCC(=O)Nc1ccccc1CO | inconclusive: 11.2 µM [activator, partial curve]
25 | Clc1ccccc1CSc1ncn(-c2ccccc2)n1 | inconclusive: 20.6 µM [activator, partial curve, poor fit]
26 | COc1ccc(-c2cc(C3C4C=CCC(C)C4C(=O)N3Cc3ccccc3)ccc2F)cc1 (stereo not given) | inactive
27 | Cn1c(=O)n(C)c2cc(NC(=O)COc3ccc(F)cc3F)ccc21 | inconclusive: 18.4 µM [falling, partial curve]
28 | Cc1cnc(NC(=O)c2sc3ccccc3c2Cl)s1 | inconclusive: 0.366 µM [activator, full curve]
29 | O=C(Nc1cccnc1Cl)c1cc(-c2ccco2)on1 | inconclusive: 20.6 µM [activator, single point]
30 | COc1ccc(Nc2cc(C)c3cc(NC(=O)c4cc(OC)cc(OC)c4)ccc3n2)cc1 | inconclusive: 16.4 µM [falling, single point]
31 | CCn1c(/C=C/c2ccccc2)nc2ccccc21 | inconclusive: 1.03 µM [activator, full curve]
32 | Cc1ccc(N=C2CCCN2Cc2ccccc2)c(C#N)c1 | inactive
33 | O=C(Nc1cccc(S(=O)(=O)NC2=NCCC2)c1)c1ccc(F)cc1F | inconclusive: 16.4 µM [falling, partial curve]
34 | O=C(Nc1ccc(S(=O)(=O)N2CCCC2)cc1)Nc1ccc(F)cc1F | inconclusive: 14.6 µM [falling, partial curve, poor fit]
35 | CCS(=O)(=O)Nc1cccc(C2=NN(C(=O)c3ccco3)C(c3ccco3)C2)c1 (stereo not given) | inconclusive: 23.1 µM [activator, partial curve]
36 | Nc1nc2ccc([N+](=O)[O-])cc2[nH]1 | inactive
37 | COc1ccc(N(CC(=O)NCC2CCCO2)S(=O)(=O)c2c(C)noc2C)cc1 (stereo not given) | inactive
38 | C=CCn1c(Cc2csc(N)n2)nnc1SCC(=O)Nc1ccc(C(=O)OCC)cc1 | inconclusive: 18.4 µM [falling, partial curve, poor fit]
39 | COc1ccc(S(=O)(=O)NNC(=O)c2cc3c4ccccc4n(C)c3s2)cc1 | inactive
40 | CCn1c(/C=C/N(C)c2ccccc2)[n+](CC)c2ccc(Cl)cc21 | inconclusive: 9.2 µM [falling, partial curve]
41 | CC1CCCN(C(=O)c2ccc3c(=O)n(Cc4ccc5c(c4)OCO5)c(=S)[nH]c3c2)C1 (stereo not given) | active: 25.9 µM
42 | CCOC(=O)C1CCN(C(=O)c2oc3ccc(S(=O)(=O)N4CC(C)CC(C)C4)cc3c2C)CC1 (stereo not given) | active: 18.4 µM
43 | O=C(N/N=C/c1ccc(Cl)cc1)c1n[nH]c2c1CCCC2 | inconclusive: 25.9 µM [activator, single point]
44 | CCN1CCC(N(Cc2ccc(F)cc2)C(=O)Nc2cc(Cl)ccc2C(=O)OC)CC1 | inconclusive: 11.6 µM [activator, partial curve, poor fit]
45 | CC(NC(=O)CCc1nnc(Cc2cccc(C(F)(F)F)c2)o1)C1CC1 (stereo not given) | inconclusive: 23.1 µM [activator, partial curve]
